Laboratory results as given in patent US20200048332A1 (BIOVERATIV USA, published 2020).
Where a chain is given by its changes, count along the chain named. No constants are given. Whether binding was seen depends on the method and setting. Some binding calls cover weakened binding; strength is not graded here. For part of these data: Where a sequence is shown, tags or fusion partners need not be part of it. One block for each binder: values may come before it.

Columns and labels:
activated C1s [1] = molecular target: T1, activated C1s (human, UniProt P09871 16-688); assay: ELISA, plate pre-coated with activated C1s, detected with HRP-conjugated anti-human IgG (capture step of the PK assay, with a standard curve of VH3/VK2-Fc-sub4)
T1 sequence: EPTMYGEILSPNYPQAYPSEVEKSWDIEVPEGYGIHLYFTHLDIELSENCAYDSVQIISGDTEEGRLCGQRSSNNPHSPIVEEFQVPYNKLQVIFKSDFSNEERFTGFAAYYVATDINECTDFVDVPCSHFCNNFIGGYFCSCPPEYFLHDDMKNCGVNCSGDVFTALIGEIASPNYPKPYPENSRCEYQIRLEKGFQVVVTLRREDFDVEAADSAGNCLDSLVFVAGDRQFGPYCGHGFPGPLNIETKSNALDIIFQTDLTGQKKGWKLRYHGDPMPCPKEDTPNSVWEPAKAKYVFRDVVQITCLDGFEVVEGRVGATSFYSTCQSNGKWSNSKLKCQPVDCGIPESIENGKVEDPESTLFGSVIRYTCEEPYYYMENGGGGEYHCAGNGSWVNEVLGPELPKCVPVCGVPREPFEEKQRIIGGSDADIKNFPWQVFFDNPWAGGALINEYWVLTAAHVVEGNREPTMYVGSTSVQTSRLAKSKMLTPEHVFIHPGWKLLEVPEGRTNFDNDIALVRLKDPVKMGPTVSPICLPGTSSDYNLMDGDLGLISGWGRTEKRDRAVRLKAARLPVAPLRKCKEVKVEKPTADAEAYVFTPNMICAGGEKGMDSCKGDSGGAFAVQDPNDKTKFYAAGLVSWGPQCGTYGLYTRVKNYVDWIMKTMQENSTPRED

activated C1s [2] = molecular target: T1, activated C1s; assay: direct binding of antibody to activated C1s (column 'Direct Binding Ab to aC1s', EC50 (M)); assay format not named
activated C1s [3] = molecular target: T1, activated C1s; assay: direct binding to activated C1s and competition binding with 50 pM Biot-005

binding (activated C1s [1]): binds
B1: VH3/VK2-Fc-sub4 (antibody, human IgG4 S228P, kappa, V domains shown)
VH: QVQLVQSGAEVKKPGASVKLSCTASGFNIKDDYIHWVKQAPGQGLEWIGRIDPADGHTKYAPKFQVKVTITADTSTSTAYLELSSLRSEDTAVYYCARYGYGREVFDYWGQGTTVTVSS
VL: DIVLTQSPDSLAVSLGERATISCKASQSVDYDGDSYMNWYQQKPGQPPKILIYDASNLESGIPARFSGSGSGTDFTLTISSLEPEDFAIYYCQQSNEDPWTFGGGTKVEIKR
notes: Humanized IgG4; also called TNT020; humanized anti-aC1s variant VH3/VK2-Fc-sub4

binding (activated C1s [2]): binds
B2: murine anti-activated C1s antibody (antibody, V domains shown)
VH: EVQLQQSGAELVRPGASVKLSCTASGFNIKDDYIHWVKQRPEQGLEWIGRIDPADGHTKYAPKFQVKATITADTSSNTAYLQLSSLTSEDTAVYYCARYGYGREVFDYWGQGTTLTVSS
VL: DIVLTQSPASLAVSLGQRATISCKASQSVDYDGDSYMNWYQQKTGQPPKILIYDASNLESGIPARFSGSGSGTDFTLNIHPVEEEDAAIYYCQQSNEDPWTFGGGTKLEIK

binding (activated C1s [3]): binds
B3: humanized VH2/Vk2 (antibody, V domains shown)
VH: B1 VH with Q1E, V68A, S77N
VL: B2 VL with A9D, Q17E, T44P, N78T, H80S, P81S, V82L, E84P, A87F, L108V
